Test results as given in PMC4977824.
These are yes or no findings as the source states them, for the method shown. In cells and extracts the contact can be indirect. These calls come from enrichment with a bait or labelling near it, and not all partners need be listed. For some assays here: A no says only that the protein was not detected with the bait. Tags and fused reporters may be left off the sequences shown.

Tests used:
[1] = target: T1, DLG-1::GTA (DLG-1::GFP-2xTEV-Avi) (C. elegans) (UniProt G5ECY0); assay: condition: only DLG-1 biotinylated in the intestine, in epidermal cells or ubiquitously; affinity purification with mass spectrometry; as a1, only the purifications of DLG-1::GTA biotinylated in the intestine, in seam/hyp7 epidermal cells or ubiquitously (not the neuron-specific purification)
T1 sequence (chain, biotin on the Avi tag (in vivo, by BirA)): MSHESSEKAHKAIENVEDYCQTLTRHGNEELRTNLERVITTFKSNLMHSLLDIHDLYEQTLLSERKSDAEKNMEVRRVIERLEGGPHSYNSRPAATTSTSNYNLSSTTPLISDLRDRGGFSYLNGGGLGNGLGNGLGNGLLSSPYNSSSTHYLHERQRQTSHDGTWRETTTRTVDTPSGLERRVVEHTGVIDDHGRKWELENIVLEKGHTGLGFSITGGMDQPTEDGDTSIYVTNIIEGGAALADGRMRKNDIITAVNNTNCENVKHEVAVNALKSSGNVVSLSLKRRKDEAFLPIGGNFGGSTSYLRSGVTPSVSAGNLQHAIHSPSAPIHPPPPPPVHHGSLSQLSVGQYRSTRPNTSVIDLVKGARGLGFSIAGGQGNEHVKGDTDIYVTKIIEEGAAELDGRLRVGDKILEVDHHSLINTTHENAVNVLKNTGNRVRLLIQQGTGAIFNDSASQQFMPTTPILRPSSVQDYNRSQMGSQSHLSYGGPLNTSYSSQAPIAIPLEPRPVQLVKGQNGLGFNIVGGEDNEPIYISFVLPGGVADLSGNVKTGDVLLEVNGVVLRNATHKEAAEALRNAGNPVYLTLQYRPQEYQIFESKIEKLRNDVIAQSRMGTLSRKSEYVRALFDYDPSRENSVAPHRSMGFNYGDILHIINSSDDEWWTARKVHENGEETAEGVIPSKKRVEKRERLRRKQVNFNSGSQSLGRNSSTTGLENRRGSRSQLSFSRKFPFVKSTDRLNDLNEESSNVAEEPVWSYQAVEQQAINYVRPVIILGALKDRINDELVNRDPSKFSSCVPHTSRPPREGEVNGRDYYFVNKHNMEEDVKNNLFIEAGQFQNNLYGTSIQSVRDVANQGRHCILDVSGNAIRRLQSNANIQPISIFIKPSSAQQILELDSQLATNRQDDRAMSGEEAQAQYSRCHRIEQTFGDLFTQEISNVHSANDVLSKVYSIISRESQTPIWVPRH

[2] = target: T1, DLG-1::GTA (DLG-1::GFP-2xTEV-Avi) (C. elegans); assay: affinity purification with mass spectrometry; GTA-tagged bait biotinylated in vivo (BirA ubiquitous, intestine, seam/hyp7 or neurons) captured on streptavidin-coated beads from whole-animal lysate (L3/L4; 150 mM NaCl, 20 mM Tris pH 7.8, 5 mM EDTA, 1 % Triton X-100), 1.5 h at 4 °C, released by TEV protease, LC-MS/MS, SAINT scoring against GFP::TEV::Avi controls, triplicates

- binding [1]: no binding
- binding [2]: binds
B1: MAPH-1.1 (endogenous) (protein, UniProt P91859 1-878)
chain: MPEEYIMSSKACIYVLGGAANTAALFDFDGVYILDGGFAEKNPGFVAHVRDVSAVLLAAPTLGNLGTTSALLEQGKPLPVFTNTKPFKTAKPGSSGEIAKAIQEANSKILSVAPPLFNPKYPANIIYQSAAKGVLSLYILAGDVKDAEVITKALAGGNEAEVEKAAAEHGTIGVLLWRPAMTDQSVVRVLISGTSSLSRIQQSLDKAAKSLPFLNVPTVKSKDALSDIPAPAVPRPVAGKPSARPATTTGTATRPTRPAVPAASAPRALTSRAPAGPSRPTTTRNAAPAPRTAVPSRATVLTKTAPASKAPTRAPVPARSAPAPPRGAPAKPAANTAKAEPIAQKKTVGKVQGTAPSKPAPAAPASAATSPAPAPEAPRRDPNNVTIVLDDSLSPEDFNQGSAPMDIVVIPPTPEPPRHEVAQATHPEESIIDAEDLAKAPLEVDDVANLADVEDEIPPPVDAFKKPEPHPEPNVSGGSEEDKIPEPVDAFKKPDPVELDDFDPLKPSHPEPSAPVVPSDHIIIATPDPELPDIVAAVPFVSPSPKGPNDGLVKLDDELEKIAPGFEEPLIPQAPRDDGTLAECSEEVSKLVEISMDTDNSAEVAADLAKAVGEVTQLSADLQNLGLDEKTDEYVRKLSNQMIEDATLPFTSALASSIVTSNGSETNGHGEQAHAAQNGGIDHQKEIPKHDLMQSRSSVIENGAAVQYEKTDPALDDVLNACAQESEKIDASHPDNLHMPAAPGSAAPAKPVKFARPYYFDVVTVPRNEKLETSVAADGLQEFISKVRSRNVILASKDISGEQLQAILCGKQTWCDSAHPCNVIPTHSSPMLLDFRQKNEEQFAANNLQFSIPVEKQRTTVSSDAGAIEYELARVDLL
